# Source: PubChem BioAssay AID1487 (National Center for Advancing Translational Sciences (NCATS), 2009)
# “And” between values parts separate entries of the source, which are not always exact repeats. Identical values can stand only once. Some of the results follow. The main result of the screen is listed elsewhere. These columns were measured beside it and carry no call. Most of these compounds were active or inconclusive in the main read-out, so they are no random draw. Words in brackets tell the shape of the fitted curve; partial curves, single points and poor fits give uncertain potencies.
# Experiment: qHTS Assay for Modulators of Lamin A Splicing
# Conditions: HeLa LMNA splicing GFP/RFP minigene ratio, 48 h
# Procedure, shortened: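 S3 HeLa cells stably expressing lamin A-EGFP splicing minigene plus DsRed2, 600 cells/well, 48 h compound exposure at 37C. Laser-scanning cytometry; analysed as GFP (500-530 nm)/RFP (575-640 nm) total intensity ratio; 0.5% DMSO vehicle.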
# [1] = measured here: GFP splicing reporter channel
# [2] = measured here: RFP viability control channel
Structure (SMILES),AC50 [1],AC50 [2]
COc1ccc(-c2ccc(CCC(=O)O)n2NC(=O)c2ccc(C(C)(C)C)cc2)cc1,"0.02 µM [rising, full curve, poor fit]",
c1ccc(-c2cc3c(NCC4COc5ccccc5O4)ncnc3s2)cc1 (centres undefined),"7.94 µM [rising, partial curve]","11.2 µM [rising, partial curve]"
CC(C)CNC(=O)c1cc(-c2ccc(Cl)c(Cl)c2)on1,"0.282 µM [rising, full curve, poor fit]","0.224 µM [rising, full curve, poor fit]"
Cc1ccc(N(CC(=O)NC(C)(C)C)C(=O)CNC(=O)c2cccs2)cc1C,"0.00447 µM [falling, full curve, poor fit]","0.00891 µM [falling, full curve, poor fit]"
O=C(Cn1cnc2ccccc2c1=O)Nc1ccc(N2CCOCC2)cc1,"4.47 µM [falling, full curve, poor fit]","28.2 µM [falling, single point]"
NC(N)=O,"0.794 µM [falling, single point]","0.794 µM [falling, single point]"
CCCC(C)NC(=S)NC(=O)c1cc(S(=O)(=O)N2CCOCC2)ccc1C (centres undefined),"10 µM [rising, partial curve]","15.8 µM [rising, partial curve]"
CCCS(=O)(=O)c1c(S(=O)(=O)CCC)c2ccc(C(C)=O)cn2c1C(=O)OC,"17.8 µM [rising, partial curve, poor fit]",
Cc1ccc(C(=O)C2Oc3ccccc3C3CC(c4ccc(C)cc4)=NN23)cc1 (centres undefined),,"14.1 µM [rising, partial curve]"
C=CCSc1nccc(-c2nn(-c3ccc(C)cc3)ccc2=O)n1,,"22.4 µM [rising, single point]"
O=C(Nc1ccc2[nH]c(=O)[nH]c2c1)c1ccc(Cl)c(Cl)c1,"0.0224 µM [falling, full curve, poor fit]","0.01 µM [falling, full curve, poor fit]"
CCN1C=C(Cc2cccs2)C2=C(C1)C(c1cccs1)C(C#N)=C(N)O2 (centres undefined),"14.1 µM [rising, single point]","12.6 µM [rising, single point]"
O=C(N/C=N/OCc1ccc(Cl)cc1Cl)NOCc1ncc(C(F)(F)F)cc1Cl,,"11.2 µM [rising, partial curve, poor fit]"
Cc1c(Cl)cccc1NC(=O)C1CCN(c2nc3ccccc3[nH]2)CC1,"0.447 µM [rising, single point]","0.562 µM [rising, single point]"
CCCN(C(=O)Nc1cn(CC(C)C)c(=O)c2ccccc12)c1ccc(F)cc1,"10 µM [falling, partial curve, poor fit]",
Cc1ccc(CCNC(=O)C23CN(Cc4ccccc4)CC2C(c2ccc([N+](=O)[O-])cc2)=NO3)cc1 (centres undefined),"11.2 µM [rising, single point]",
O=C(CN1CCN(c2ccccc2F)CC1)N1N=CCC1c1ccccc1 (centres undefined),"2.24 µM [rising, partial curve, poor fit]","0.0631 µM [rising, full curve, poor fit]"
COc1ccccc1NC(=O)Cn1c(=O)n(-c2ccccc2)c(=O)c2oc3ccccc3c21,"2.51 µM [falling, partial curve]",
O=C(OCCN1C(=O)c2cccc3c(N4CCOCC4)ccc(c23)C1=O)c1cccc(Cl)c1,,"22.4 µM [rising, single point]"
S=c1[nH]c2ccc3ccccc3c2[nH]1,"0.224 µM [falling, full curve, poor fit]",
c1csc(-c2csc3ncnc(NCCCN4CCOCC4)c23)c1,"12.6 µM [rising, single point]","12.6 µM [rising, partial curve]"
CC(C)C(=O)OCc1cc(=O)n2nc(C3CC3)sc2n1,"0.00891 µM [rising, full curve]",
N#CCSc1nc2ccccc2c2nc3ccccc3n12,"0.112 µM [rising, full curve, poor fit]",
COc1cc(/C=C(\C#N)c2nc3ccccc3[nH]2)cc(Br)c1OCc1ccccc1,"2.82 µM [rising, partial curve, poor fit]",
Cc1cc(C)cc(NC(=O)CSc2nc3sc4c(c3c(=O)[nH]2)CCCC4)c1,,"0.112 µM [falling, partial curve, poor fit]"
COc1ccc(C(=O)Sc2nncc3ccccc23)cc1,"0.0112 µM [falling, full curve, poor fit]",

Structure (SMILES),AC50 [1],AC50 [2]
COc1ccc(C)cc1NC(=O)CCN1CC(C)OC(C)C1 (centres undefined),"12.6 µM [falling, partial curve, poor fit]",
CCCCOc1ccc(NC(=O)[C@@H]2CCCN2C(=O)C2CCN(S(=O)(=O)c3ccc(C)cc3)CC2)cc1,"14.1 µM [rising, single point]","17.8 µM [rising, single point]"
O=C(NCCc1ccc(Cl)cc1)c1ccc(CSCc2cccc(Cl)c2)o1,,"14.1 µM [rising, single point]"
Cc1cc(-c2ccccc2)nc(N2CCN(c3ccccn3)CC2)n1,"17.8 µM [rising, partial curve, poor fit]","12.6 µM [rising, single point]"
Cc1cccc2nc(-c3ccccc3)nc(N[C@@H](CO)c3ccccc3)c12,,"14.1 µM [rising, partial curve]"
O=C(Nc1ccc(N2CCOCC2)cc1)c1ccc2c(c1)OCO2,"17.8 µM [falling, partial curve, poor fit]",
Cc1nn(CC(=O)Nc2cc(S(=O)(=O)N(C)C)ccc2Cl)c(C)c1[N+](=O)[O-],"20 µM [rising, partial curve, poor fit]","31.6 µM [rising, single point]"
Cc1cc(C)cc(OCC(=O)N2CCC(c3nc4ccccc4s3)CC2)c1,"7.94 µM [falling, partial curve, poor fit]","0.00447 µM [falling, full curve, poor fit]"
CC(/C=C1\SC(=S)N(NC(=O)c2ccc(O)cc2)C1=O)=C\c1ccccc1,"0.00501 µM [falling, full curve]",
CC(=O)C1=C(S(=O)(=O)c2ccc(C)cc2)CS(=O)(=O)C1,,"22.4 µM [rising, partial curve]"
C/C=C/c1cc(CN2CCN(c3ccccc3)CC2)c(O)c(OC)c1,"0.00316 µM [falling, full curve]","12.6 µM [rising, single point]"
Cn1c([N+](=O)[O-])cnc1COC(N)=O,"251 nM [falling, full curve] and 501 nM [falling, full curve, poor fit]","0.251 µM [falling, full curve, poor fit]"
Cn1cccc1/C=N/n1c(-c2ccc(Cl)cc2Cl)n[nH]c1=S,,"17.8 µM [rising, single point]"
COCCCNC(=S)NC1CCCCC1,,"35.5 µM [rising, single point]"
CCc1ccc(CC2S/C(=C(\C#N)C(C)=O)NC2=O)cc1 (centres undefined),"4.47 µM [rising, partial curve]","3.16 µM [rising, partial curve]"
CCC(SC1=N/C(=C/c2ccccc2)C(=O)N1c1ccccc1)C(=O)Nc1cc(C)on1 (centres undefined),,"6.31 µM [rising, partial curve, poor fit]"
CCCCc1nc2c(c3c1C[C@H](C)OC3)CN(C(=O)COC)CC2,"0.000891 µM [rising, full curve, poor fit]",
Cc1cc(F)ccc1NC(=O)CCn1nc(C)c(S(=O)(=O)N2CCCCC2)c1C,"39.8 µM [rising, partial curve, poor fit]",
CCOc1ccc(-c2cc(C(=O)NCCc3ccc(OC)c(OC)c3)c3c(-c4ccc(F)cc4)[nH]nc3n2)cc1,"0.891 µM [falling, partial curve, poor fit]","17.8 µM [falling, partial curve, poor fit]"
CC1=C(C(=O)O)N2C(=O)[C@@H](NC(=O)[C@@H](N)c3ccccc3)[C@@H]2SC1,"0.00708 µM [falling, full curve, poor fit]",
CCc1ccc(S(=O)(=O)NCc2cn3ccccc3n2)s1,,"12.6 µM [rising, partial curve, poor fit]"
Cc1cc2cc(CN(CC3CCCO3)C(=S)NCc3ccco3)c(=O)[nH]c2cc1C (centres undefined),,"28.2 µM [rising, single point]"
Cc1ccc(S(=O)(=O)N2CCCCC2)cc1NC(=O)CSc1nnc(N)s1,"0.0251 µM [falling, full curve, poor fit]","0.0141 µM [falling, full curve, poor fit]"
O=[N+]([O-])c1ccc(-c2csc(Nc3ccccc3)[n+]2Cc2ccccc2)cc1,"8.91 µM [rising, partial curve, poor fit]","12.6 µM [rising, partial curve]"
COc1cccc(CNC(=O)c2cc(Sc3cccc(Cl)c3)nc3ccccc23)c1,,"3.98 µM [rising, full curve, poor fit]"
Oc1c(Cl)cc(Cl)cc1C(C#Cc1ccccc1)N1CCOCC1 (centres undefined),"35.5 µM [falling, single point]","35.5 µM [falling, single point]"
